Patent US9700539B2, “Therapeutic application of (Boc)2-creatine” (UNIVERSITA' DEGLI STUDI DI GENOVA, priority 2013, dated 2017)
Entries after “also recorded” stand apart in the source; their conditions may differ. At least one read-out could not be matched to a standard name with certainty.

System: creatine kinase enzyme
Assay: Creatine kinase activity by the coupled enzymatic method (pyruvate kinase/lactate dehydrogenase, NADH at 340 nm)
Format: biochemical
Settings: (Boc)2-creatine 0 mM; 5 mM; 1 mM; creatine between 0 and 2 mM
Protocol: The activity of the creatine kinase enzyme was measured by the enzymatic coupling method (Bergmeyer 1974). In this method, the ATP hydrolysis is coupled with the NADH oxidation, which is monitored, by means of a spectrophotometer, by the decrease in absorbance at 340 nm (ε340=6.22 mM^−1 cm^−1).
The dosage of the creatine kinase was carried out with the spectrophotometer at 340 nm, following the oxidation of the pyridine coenzyme NADH, which is expressed as a decrease in the absorbance. To be able to carry out the dosage, the reaction of the creatine kinase was combined with two other enzymatic reactions catalyzed respectively by the pyruvate kinase and by the lactate dehydrogenase (Bergmeyer 1974). This method, defined as the coupled method, is necessary because both the substrata and the products of the creatine kinase are not directly visible to the spectrophotometer. […] The dosage trend is monitored by a register connected to the spectrophotometer. […]
To identify the type of inhibition, the maximum kinetic speed (Vmax) and the Michaelis Menten constant (Km) were measured. […] The data were analyzed with the Lineweaver-Burk double-reciprocal plot.

CN(CC(=O)O)C(=NC(=O)OC(C)(C)C)NC(=O)OC(C)(C)C [(Boc)2-creatine]
type of inhibition of creatine kinase (Lineweaver-Burk, Vmax/Km): competitive type; also recorded: competitive inhibitor
